We go through 20 molecules from patent US20230416361A1.

By UniProt entry, the sequences of proteins in these tests, tags left out. Residues count along the entry.
UniProt Q8TD46, residues 29-265: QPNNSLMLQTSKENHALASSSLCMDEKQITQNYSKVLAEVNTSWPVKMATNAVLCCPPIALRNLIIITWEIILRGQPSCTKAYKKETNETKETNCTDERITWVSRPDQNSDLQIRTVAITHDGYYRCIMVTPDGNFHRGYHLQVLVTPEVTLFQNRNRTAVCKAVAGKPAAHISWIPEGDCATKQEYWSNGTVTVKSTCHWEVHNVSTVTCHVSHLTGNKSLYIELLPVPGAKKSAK

To fix the notation:
T1: cyno CD200R expressed on HEK293T cells (cynomolgus) (UniProt G7NZT0)
T1 sequence: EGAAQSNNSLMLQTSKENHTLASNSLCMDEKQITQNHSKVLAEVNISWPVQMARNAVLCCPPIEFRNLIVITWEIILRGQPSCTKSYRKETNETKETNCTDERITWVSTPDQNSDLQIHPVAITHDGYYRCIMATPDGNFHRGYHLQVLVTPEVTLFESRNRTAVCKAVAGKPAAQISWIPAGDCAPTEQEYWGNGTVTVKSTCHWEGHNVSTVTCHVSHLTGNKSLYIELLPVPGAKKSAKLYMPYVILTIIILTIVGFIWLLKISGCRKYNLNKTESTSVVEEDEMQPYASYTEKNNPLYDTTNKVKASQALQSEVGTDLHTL

B1: anti-CD200R antibody clone 21.3.1 (mIgG1k isotype) (antibody, V domains shown)
VH: QVQLQQPGSELVRPGASVKLSCKASGHTFTSYWMHWVKQRPGQGLEWIGNIYPGSGSINYDEKFKSKAKLTVDTSSRTAYMQLSSLTSEDSAVYYCLTMTGTSWGQGTLVTVSA
VL: DVQMIQSPSSLSASLGDIVTMTCQASQGTPINLHWFQQKPGKAPKLLISGASNLEDGVPSRFSGSRYGTAFTLTISSLEDEDMATYFCLQFTYIPWTFGGGTKLEIKR
B2: hu2131_v1 (antibody, human IgG1, V domains shown)
VH: QVQLVQSGSELKKPGASVKLSCKASGHTFTSYWMHWVKQAPGQGLEWIGNIYPGSGSINYDEKFQGRATLTVDTSTRTAYMELSSLRSEDSAVYYCLTMTGTSWGRGTLVTVSS
VL: DVQMTQSPSSLSVSVGDRVTMTCQASQGTPINLHWFQQKPGKAPKLLISGASNLEDGVPSRFSGSRYGTAFTLTISSLQDEDIATYFCLQFTYIPWTFGQGTKLEIK
B3: hu2131_v11 (antibody, human IgG1, V domains shown)
VH: QVQLVQSGAEVKKPGASVKVSCKASGHTFTSYWMHWVRQAPGQGLEWIGNIYPGSGSINYDEKFQGRVTMTVDTSTSTAYMELSSLRSEDTAVYYCLTMTGTSWGRGTLVTVSS
VL: DVQMTQSPSSLSVSVGDRVTMTCQASQGTPINLHWFQQKPGKAPKLLISGASNLEDGVPSRFSGSRYGTAFTLTISSLQDEDIATYFCLQFTYIPWTFGQGTKLEIK
B4: hu2131_v3 (antibody, human IgG1, V domains shown)
VH: QVQLVQSGSELKKPGASVKLSCKASGHTFTSYWMHWVKQAPGQGLEWIGNIYPGSGSINYDEKFQGRATLTVDTSTRTAYMELSSLRSEDSAVYYCLTMTGTSWGRGTLVTVSS
VL: DVQMTQSPSSLSVSVGDRVTITCQASQGTPINLHWFQQKPGKAPKLLISGASNLEDGVPSRFSGSRYGTDFTFTISSLQPEDIATYFCLQFTYIPWTFGQGTKLEIK
B5: hu2131_v9 (antibody, human IgG1, V domains shown)
VH: QVQLVQSGAEVKKPGASVKLSCKASGHTFTSYWMHWVKQAPGQGLEWIGNIYPGSGSINYDEKFQGRATLTVDTSTRTAYMELSSLRSEDTAVYYCLTMTGTSWGRGTLVTVSS
VL: DIQMTQSPSSLSVSVGDRVTITCQASQGTPINLHWFQQKPGKAPKLLISGASNLEDGVPSRFSGSGSGTDFTFTISSLQPEDIATYYCLQFTYIPWTFGQGTKLEIK
B6: hu2131_v10 (antibody, human IgG1, V domains shown)
VH: QVQLVQSGAEVKKPGASVKLSCKASGHTFTSYWMHWVKQAPGQGLEWIGNIYPGSGSINYDEKFQGRATLTVDTSTRTAYMELSSLRSEDTAVYYCLTMTGTSWGRGTLVTVSS
VL: DIQMTQSPSSLSVSVGDRVTITCQASQGTPINLHWFQQKPGKAPKLLISGASNLEDGVPSRFSGSGSGTEFTFTISSLQPEDAATYYCLQFTYIPWTFGQGTKLEIK
B7: hu2131_v13 (antibody, human IgG1, V domains shown)
VH: QVQLVQSGAEVKKPGASVKVSCKASGHTFTSYWMHWVRQAPGQGLEWIGNIYPGSGSINYDEKFQGRVTMTVDTSTSTAYMELSSLRSEDTAVYYCLTMTGTSWGRGTLVTVSS
VL: DVQMTQSPSSLSVSVGDRVTITCQASQGTPINLHWFQQKPGKAPKLLISGASNLEDGVPSRFSGSRYGTDFTFTISSLQPEDIATYFCLQFTYIPWTFGQGTKLEIK
B8: hu2131_v6 (antibody, human IgG1, V domains shown)
VH: QVQLVQSGAEVKKPGASVKLSCKASGHTFTSYWMHWVKQAPGQGLEWIGNIYPGSGSINYDEKFQGRATLTVDTSTRTAYMELSSLRSEDTAVYYCLTMTGTSWGRGTLVTVSS
VL: DVQMTQSPSSLSVSVGDRVTMTCQASQGTPINLHWFQQKPGKAPKLLISGASNLEDGVPSRFSGSRYGTAFTLTISSLQDEDIATYFCLQFTYIPWTFGQGTKLEIK
B9: hu2131_v18 (antibody, human IgG1, V domains shown)
VH: QVQLVQSGAEVKKPGASVKVSCKASGHTFTSYWMHWVRQAPGQGLEWMGNIYPGSGSINYDEKFQGRVTMTADTSTSTVYMELSSLRSEDTAVYYCLTMTGTSWGRGTLVTVSS
VL: DVQMTQSPSSLSVSVGDRVTITCQASQGTPINLHWFQQKPGKAPKLLISGASNLEDGVPSRFSGSRYGTDFTFTISSLQPEDIATYFCLQFTYIPWTFGQGTKLEIK
B10: hu2131_v15 (antibody, human IgG1, V domains shown)
VH: QVQLVQSGAEVKKPGASVKVSCKASGHTFTSYWMHWVRQAPGQGLEWIGNIYPGSGSINYDEKFQGRVTMTVDTSTSTAYMELSSLRSEDTAVYYCLTMTGTSWGRGTLVTVSS
VL: DIQMTQSPSSLSVSVGDRVTITCQASQGTPINLHWFQQKPGKAPKLLISGASNLEDGVPSRFSGSGSGTEFTFTISSLQPEDAATYYCLQFTYIPWTFGQGTKLEIK
B11: hu2131_v17 (antibody, human IgG1, V domains shown)
VH: QVQLVQSGAEVKKPGASVKVSCKASGHTFTSYWMHWVRQAPGQGLEWMGNIYPGSGSINYDEKFQGRVTMTADTSTSTVYMELSSLRSEDTAVYYCLTMTGTSWGRGTLVTVSS
VL: DVQMTQSPSSLSVSVGDRVTMTCQASQGTPINLHWFQQKPGKAPKLLISGASNLEDGVPSRFSGSRYGTAFTLTISSLQPEDIATYFCLQFTYIPWTFGQGTKLEIK
B12: hu2131_v19 (antibody, human IgG1, V domains shown)
VH: QVQLVQSGAEVKKPGASVKVSCKASGHTFTSYWMHWVRQAPGQGLEWMGNIYPGSGSINYDEKFQGRVTMTADTSTSTVYMELSSLRSEDTAVYYCLTMTGTSWGRGTLVTVSS
VL: DIQMTQSPSSLSVSVGDRVTITCQASQGTPINLHWFQQKPGKAPKLLISGASNLEDGVPSRFSGSGSGTDFTFTISSLQPEDIATYYCLQFTYIPWTFGQGTKLEIK
B13: hu2131_v4 (antibody, human IgG1, V domains shown)
VH: QVQLVQSGSELKKPGASVKLSCKASGHTFTSYWMHWVKQAPGQGLEWIGNIYPGSGSINYDEKFQGRATLTVDTSTRTAYMELSSLRSEDSAVYYCLTMTGTSWGRGTLVTVSS
VL: DIQMTQSPSSLSVSVGDRVTITCQASQGTPINLHWFQQKPGKAPKLLISGASNLEDGVPSRFSGSGSGTDFTFTISSLQPEDIATYYCLQFTYIPWTFGQGTKLEIK
B14: hu2131_v7 (antibody, human IgG1, V domains shown)
VH: QVQLVQSGAEVKKPGASVKLSCKASGHTFTSYWMHWVKQAPGQGLEWIGNIYPGSGSINYDEKFQGRATLTVDTSTRTAYMELSSLRSEDTAVYYCLTMTGTSWGRGTLVTVSS
VL: DVQMTQSPSSLSVSVGDRVTMTCQASQGTPINLHWFQQKPGKAPKLLISGASNLEDGVPSRFSGSRYGTAFTLTISSLQPEDIATYFCLQFTYIPWTFGQGTKLEIK
B15: hu2131_v12 (antibody, human IgG1, V domains shown)
VH: QVQLVQSGAEVKKPGASVKVSCKASGHTFTSYWMHWVRQAPGQGLEWIGNIYPGSGSINYDEKFQGRVTMTVDTSTSTAYMELSSLRSEDTAVYYCLTMTGTSWGRGTLVTVSS
VL: DVQMTQSPSSLSVSVGDRVTMTCQASQGTPINLHWFQQKPGKAPKLLISGASNLEDGVPSRFSGSRYGTAFTLTISSLQPEDIATYFCLQFTYIPWTFGQGTKLEIK
B16: hu2131_v5 (antibody, human IgG1, V domains shown)
VH: QVQLVQSGSELKKPGASVKLSCKASGHTFTSYWMHWVKQAPGQGLEWIGNIYPGSGSINYDEKFQGRATLTVDTSTRTAYMELSSLRSEDSAVYYCLTMTGTSWGRGTLVTVSS
VL: DIQMTQSPSSLSVSVGDRVTITCQASQGTPINLHWFQQKPGKAPKLLISGASNLEDGVPSRFSGSGSGTEFTFTISSLQPEDAATYYCLQFTYIPWTFGQGTKLEIK
B17: hu2131_v8 (antibody, human IgG1, V domains shown)
VH: QVQLVQSGAEVKKPGASVKLSCKASGHTFTSYWMHWVKQAPGQGLEWIGNIYPGSGSINYDEKFQGRATLTVDTSTRTAYMELSSLRSEDTAVYYCLTMTGTSWGRGTLVTVSS
VL: DVQMTQSPSSLSVSVGDRVTITCQASQGTPINLHWFQQKPGKAPKLLISGASNLEDGVPSRFSGSRYGTDFTFTISSLQPEDIATYFCLQFTYIPWTFGQGTKLEIK
B18: hu2131_v2 (antibody, human IgG1, V domains shown)
VH: QVQLVQSGSELKKPGASVKLSCKASGHTFTSYWMHWVKQAPGQGLEWIGNIYPGSGSINYDEKFQGRATLTVDTSTRTAYMELSSLRSEDSAVYYCLTMTGTSWGRGTLVTVSS
VL: DVQMTQSPSSLSVSVGDRVTMTCQASQGTPINLHWFQQKPGKAPKLLISGASNLEDGVPSRFSGSRYGTAFTLTISSLQPEDIATYFCLQFTYIPWTFGQGTKLEIK
B19: hu2131_v14 (antibody, human IgG1, V domains shown)
VH: QVQLVQSGAEVKKPGASVKVSCKASGHTFTSYWMHWVRQAPGQGLEWIGNIYPGSGSINYDEKFQGRVTMTVDTSTSTAYMELSSLRSEDTAVYYCLTMTGTSWGRGTLVTVSS
VL: DIQMTQSPSSLSVSVGDRVTITCQASQGTPINLHWFQQKPGKAPKLLISGASNLEDGVPSRFSGSGSGTDFTFTISSLQPEDIATYYCLQFTYIPWTFGQGTKLEIK
B20: hu2131_v16 (antibody, human IgG1, V domains shown)
VH: QVQLVQSGAEVKKPGASVKVSCKASGHTFTSYWMHWVRQAPGQGLEWMGNIYPGSGSINYDEKFQGRVTMTADTSTSTVYMELSSLRSEDTAVYYCLTMTGTSWGRGTLVTVSS
VL: DVQMTQSPSSLSVSVGDRVTMTCQASQGTPINLHWFQQKPGKAPKLLISGASNLEDGVPSRFSGSRYGTAFTLTISSLQDEDIATYFCLQFTYIPWTFGQGTKLEIK

These are yes or no findings as the source states them, for the method shown. Some binding calls cover weakened binding; strength is not graded here.

The first experiment addresses T1, cyno CD200R expressed on HEK293T cells (cynomolgus). Nature of the experiment: flow cytometry on transiently transfected HEK293T cells, antibody at 10 ug/ml. (In flow cytometry, cells or beads pass a laser one at a time.)
As for B1, the binding result is reported as “binds”.

The next experiment deals with monomeric soluble human CD200R extracellular domain (human) (UniProt Q8TD46). Nature of the experiment: BLI (Octet), 25 C.
For B2, the binding result was “binds”.
The same measure, in the same setting: with B3 the entry was “binds”.
Still for that read-out and setting: with B4 the entry was “binds”; with B5, “binds”.
Still for that read-out and setting: with B6 the entry was “binds”; with B7, “binds”; with B8, “binds”.
Turning to B9, the binding entry was “binds”.
For B10, the binding result was “binds”.
On the same count and under the same terms, with B11 the entry was “binds”.
Take B12: the binding result was “binds”.
Still for that read-out and setting: with B13 the entry was “binds”; with B14, “binds”.
The same measure, in the same setting: the entry for B15 is “binds”.
Regarding B16, the binding result is reported as “binds”.
On the same count and under the same terms, the entry for B17 is “binds”.
On the same count and under the same terms, the entry for B18 is “binds”; for B19 it is “binds”.
Still for that read-out and setting: the entry for B20 is “binds”.
